Test results published in the supplement of paper PMC8728848.
The list shows a part of the results.

Key:
Assay in all cases: glycan array binding signal (z-score within array); higher = stronger binding
Conditions in all cases: glycan notation: IUPAC condensed, linker removed
[1] = target: Gal3S(b1-3)[Fuc(a1-4)]GlcNAc
In short: (§1)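 From the Consortium for Functional Glycomics database, 3228 arrays were curated, keeping only those whose protein sequence was available. Binding is given as a within-array Z-score averaged across arrays sharing a protein sequence and across linkers. Negative Z-scores can be read as non-binding.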

[2] = target: Gal3S(b1-4)Glc
In short: as §1

[3] = target: Gal3S(b1-4)Glc6S
In short: as §1

[4] = target: Gal3S(b1-4)GlcNAc
In short: as §1

[5] = target: Gal3S(b1-4)[Fuc(a1-3)]Glc6S
In short: as §1

[6] = target: Gal3S(b1-4)[Fuc(a1-3)]GlcNAc
In short: as §1

[7] = target: Gal3S(b1-4)[Fuc(a1-3)]GlcNAc6S
In short: as §1

[8] = target: Gal3S4S(b1-4)GlcNAc
In short: as §1

[9] = target: Gal3S6S(b1-4)GlcNAc
In short: as §1

[10] = target: Gal3S6S(b1-4)GlcNAc6S
In short: as §1

[11] = target: Gal4S(b1-4)GlcNAc
In short: as §1

[12] = target: Gal4S6S(b1-4)GlcNAc
In short: as §1

[13] = target: Gal6P(b1-4)GlcNAc
In short: as §1

[14] = target: Gal6S(b1-3)GlcNAc
In short: as §1

[15] = target: Gal6S(b1-3)GlcNAc6S
In short: as §1

[16] = target: Gal6S(b1-4)Glc
In short: as §1

[17] = target: Gal6S(b1-4)Glc6S
In short: as §1

[18] = target: Gal6S(b1-4)GlcNAc
In short: as §1

[19] = target: Gal6S(b1-4)GlcNAc6S
In short: as §1

[20] = target: GalNAc(a1-3)Gal
In short: as §1

[21] = target: GalNAc(a1-3)GalNAc
In short: as §1

[22] = target: GalNAc(a1-3)GalNAc(b1-3)Gal(a1-4)Gal(b1-4)Glc
In short: as §1

[23] = target: GalNAc(a1-3)GalNAc(b1-3)Gal(a1-4)Gal(b1-4)GlcNAc
In short: as §1

[24] = target: GalNAc(b1-3)Gal
In short: as §1

[25] = target: GalNAc(b1-3)Gal(a1-4)Gal(b1-4)GlcNAc
In short: as §1

[26] = target: GalNAc(b1-3)Gal(a1-4)Gal(b1-4)GlcNAc(b1-3)Gal(b1-4)Glc
In short: as §1

[27] = target: GalNAc(b1-3)Gal(a1-6)Gal(b1-4)Glc
In short: as §1

[28] = target: GalNAc(b1-3)GalNAc
In short: as §1

[29] = target: GalNAc(b1-3)GlcNAc
In short: as §1

[30] = target: GalNAc(b1-4)Gal(b1-4)Glc
In short: as §1

[31] = target: GalNAc(b1-4)GlcNAc
In short: as §1

[32] = target: GalNAc(b1-4)GlcNAc(b1-2)Man
In short: as §1

[33] = target: GalNAc(b1-4)GlcNAc(b1-2)Man(a1-3)[GalNAc(b1-4)GlcNAc(b1-2)Man(a1-6)]Man(b1-4)GlcNAc(b1-4)GlcNAc
In short: as §1

[34] = target: GalNAc(b1-4)GlcNAc(b1-3)GalNAc(b1-4)GlcNAc
In short: as §1

[35] = target: GalNAc(b1-4)GlcNAc6S
In short: as §1

[36] = target: GalNAc(b1-6)GalNAc
In short: as §1

[37] = target: GalNAc3S(b1-4)GlcNAc
In short: as §1

[38] = target: GalNAc3S(b1-4)GlcNAc3S
In short: as §1

[39] = target: GalNAc3S(b1-4)[Fuc(a1-3)]GlcNAc
In short: as §1

[40] = target: GalNAc4S6S(b1-4)GlcNAc
In short: as §1

[41] = target: GalNAc6S(b1-4)GlcNAc
In short: as §1

[42] = target: Glc(a1-4)Glc
In short: as §1

[43] = target: Glc(a1-4)Glc(a1-4)Glc(a1-4)Glc
In short: as §1

[44] = target: Glc(a1-6)Glc(a1-6)Glc
In short: as §1

[45] = target: Glc(a1-6)Glc(a1-6)Glc(a1-6)Glc
In short: as §1

[46] = target: Glc(b1-4)Glc
In short: as §1

[47] = target: Glc(b1-6)Glc
In short: as §1

[48] = target: GlcA(b1-3)Gal
In short: as §1

[49] = target: GlcA(b1-3)GlcNAc
In short: as §1

[50] = target: GlcA(b1-6)Gal
In short: as §1

[51] = target: GlcA3S(b1-3)Gal(b1-4)GlcNAc(b1-2)Man
In short: as §1

[52] = target: GlcA3S(b1-3)Gal(b1-4)GlcNAc(b1-3)Gal(b1-4)Glc
In short: as §1

[53] = target: GlcNAc(a1-3)Gal(b1-4)GlcNAc
In short: as §1

[54] = target: GlcNAc(a1-4)Gal(b1-3)GlcNAc
In short: as §1

[55] = target: GlcNAc(a1-4)Gal(b1-4)GalNAc
In short: as §1

[56] = target: GlcNAc(a1-4)Gal(b1-4)GlcNAc
In short: as §1

[57] = target: GlcNAc(a1-4)Gal(b1-4)GlcNAc(b1-3)Gal(b1-4)Glc
In short: as §1

[58] = target: GlcNAc(a1-4)Gal(b1-4)GlcNAc(b1-3)Gal(b1-4)GlcNAc
In short: as §1

[59] = target: GlcNAc(a1-4)Gal(b1-4)GlcNAc(b1-3)Gal(b1-4)GlcNAc(b1-3)Gal(b1-4)GlcNAc
In short: as §1

[60] = target: GlcNAc(a1-4)Gal(b1-4)GlcNAc(b1-3)Gal(b1-4)[Fuc(a1-3)]GlcNAc(b1-3)Gal(b1-4)[Fuc(a1-3)]GlcNAc
In short: as §1

[61] = target: GlcNAc(a1-6)Gal(b1-4)GlcNAc
In short: as §1

[62] = target: GlcNAc(b1-2)Gal(b1-3)GalNAc
In short: as §1

[63] = target: GlcNAc(b1-2)Man(a1-3)[GlcNAc(b1-2)Man(a1-6)]Man(b1-4)GlcNAc(b1-4)GlcNAc
In short: as §1

[64] = target: GlcNAc(b1-2)Man(a1-3)[GlcNAc(b1-2)Man(a1-6)]Man(b1-4)GlcNAc(b1-4)[Fuc(a1-6)]GlcNAc
In short: as §1

[65] = target: GlcNAc(b1-2)Man(a1-3)[GlcNAc(b1-4)][GlcNAc(b1-2)Man(a1-6)]Man(b1-4)GlcNAc(b1-4)GlcNAc
In short: as §1

[66] = target: GlcNAc(b1-2)Man(a1-3)[GlcNAc(b1-4)][GlcNAc(b1-2)Man(a1-6)]Man(b1-4)GlcNAc(b1-4)[Fuc(a1-6)]GlcNAc
In short: as §1

[67] = target: GlcNAc(b1-2)[GlcNAc(b1-4)]Man(a1-3)[GlcNAc(b1-2)Man(a1-6)]Man(b1-4)GlcNAc(b1-4)GlcNAc
In short: as §1

[68] = target: GlcNAc(b1-2)[GlcNAc(b1-4)]Man(a1-3)[GlcNAc(b1-4)][GlcNAc(b1-2)Man(a1-6)]Man(b1-4)GlcNAc(b1-4)GlcNAc
In short: as §1

[69] = target: GlcNAc(b1-2)[GlcNAc(b1-4)]Man(a1-3)[GlcNAc(b1-4)][GlcNAc(b1-2)[GlcNAc(b1-6)]Man(a1-6)]Man(b1-4)GlcNAc(b1-4)GlcNAc
In short: as §1

[70] = target: GlcNAc(b1-2)[GlcNAc(b1-4)]Man(a1-3)[GlcNAc(b1-4)][GlcNAc(b1-2)[GlcNAc(b1-6)]Man(a1-6)]Man(b1-4)GlcNAc(b1-4)[Fuc(a1-6)]GlcNAc
In short: as §1

[71] = target: GlcNAc(b1-2)[GlcNAc(b1-6)]Man(a1-6)[GlcNAc(b1-2)Man(a1-3)]Man(b1-4)GlcNAc(b1-4)GlcNAc
In short: as §1

[72] = target: GlcNAc(b1-2)[GlcNAc(b1-6)]Man(a1-6)[GlcNAc(b1-2)Man(a1-3)]Man(b1-4)GlcNAc(b1-4)[Fuc(a1-6)]GlcNAc
In short: as §1

[73] = target: GlcNAc(b1-2)[GlcNAc(b1-6)]Man(a1-6)[GlcNAc(b1-4)][GlcNAc(b1-2)Man(a1-3)]Man(b1-4)GlcNAc(b1-4)GlcNAc
In short: as §1

[74] = target: GlcNAc(b1-3)Fuc
In short: as §1

[75] = target: GlcNAc(b1-3)Gal
In short: as §1

B1: ERGIC1-EDTA (Homo sapiens), Q969X5 (protein)
chain: MKFLVNVALVFMVVYISYIYAAAHMHHHHHHDYDIPTTENLYFQGSEVVNELYVDDPDKDSGGKIDVSLNISLPNLHCELVGLDIQDEMGRHEVGHIDNSMKIPLNNGAGCRFEGQFSINKVPGNFHVSTHSATAQPQNPDMTHVIHKLSFGDTLQVQNIHGAFNALGGADRLTSNPLASHDYILKIVPTVYEDKSGKQRYSYQYTVANKEYVAYSHTGRIIPAIWFRYDLSPITVKYTE
- glycan array binding signal (z-score) [1]: 1.04
- glycan array binding signal (z-score) [2]: -0.142
- glycan array binding signal (z-score) [3]: 0.151
- glycan array binding signal (z-score) [4]: -0.117
- glycan array binding signal (z-score) [5]: 0.227
- glycan array binding signal (z-score) [6]: 0.1
- glycan array binding signal (z-score) [7]: -0.517
- glycan array binding signal (z-score) [8]: -0.158
- glycan array binding signal (z-score) [9]: -0.478
- glycan array binding signal (z-score) [10]: -0.247
- glycan array binding signal (z-score) [11]: -0.824
- glycan array binding signal (z-score) [12]: 0.5
- glycan array binding signal (z-score) [13]: -0.048
- glycan array binding signal (z-score) [14]: 0.099
- glycan array binding signal (z-score) [15]: -0.704
- glycan array binding signal (z-score) [16]: -0.636
- glycan array binding signal (z-score) [17]: -1.01
- glycan array binding signal (z-score) [18]: -0.715
- glycan array binding signal (z-score) [19]: -0.925
- glycan array binding signal (z-score) [20]: -0.863
- glycan array binding signal (z-score) [21]: 0.742
- glycan array binding signal (z-score) [22]: -0.639
- glycan array binding signal (z-score) [23]: 0.601
- glycan array binding signal (z-score) [24]: 0.705
- glycan array binding signal (z-score) [25]: 0.344
- glycan array binding signal (z-score) [26]: -0.485
- glycan array binding signal (z-score) [27]: -0.357
- glycan array binding signal (z-score) [28]: -0.852
- glycan array binding signal (z-score) [29]: -0.21
- glycan array binding signal (z-score) [30]: -0.531
- glycan array binding signal (z-score) [31]: -0.421
- glycan array binding signal (z-score) [32]: 0.09
- glycan array binding signal (z-score) [33]: 0.638
- glycan array binding signal (z-score) [34]: -0.132
- glycan array binding signal (z-score) [35]: -0.515
- glycan array binding signal (z-score) [36]: -0.578
- glycan array binding signal (z-score) [37]: 0.029
- glycan array binding signal (z-score) [38]: -0.19
- glycan array binding signal (z-score) [39]: -0.091
- glycan array binding signal (z-score) [40]: 0.021
- glycan array binding signal (z-score) [41]: -1.03
- glycan array binding signal (z-score) [42]: -0.302
- glycan array binding signal (z-score) [43]: 0.621
- glycan array binding signal (z-score) [44]: 0.05
- glycan array binding signal (z-score) [45]: 0.807
- glycan array binding signal (z-score) [46]: -0.459
- glycan array binding signal (z-score) [47]: -0.518
- glycan array binding signal (z-score) [48]: 0.328
- glycan array binding signal (z-score) [49]: 0.706
- glycan array binding signal (z-score) [50]: -0.179
- glycan array binding signal (z-score) [51]: 0.43
- glycan array binding signal (z-score) [52]: -0.72
- glycan array binding signal (z-score) [53]: -0.841
- glycan array binding signal (z-score) [54]: -0.065
- glycan array binding signal (z-score) [55]: -0.59
- glycan array binding signal (z-score) [56]: 0.769
- glycan array binding signal (z-score) [57]: -0.872
- glycan array binding signal (z-score) [58]: -0.366
- glycan array binding signal (z-score) [59]: -0.145
- glycan array binding signal (z-score) [60]: 1.87
- glycan array binding signal (z-score) [61]: -0.295
- glycan array binding signal (z-score) [62]: -0.315
- glycan array binding signal (z-score) [63]: -1.03
- glycan array binding signal (z-score) [64]: 1.96
- glycan array binding signal (z-score) [65]: 0.026
- glycan array binding signal (z-score) [66]: 0.562
- glycan array binding signal (z-score) [67]: -0.303
- glycan array binding signal (z-score) [68]: -0.246
- glycan array binding signal (z-score) [69]: 0.317
- glycan array binding signal (z-score) [70]: -0.379
- glycan array binding signal (z-score) [71]: -0.245
- glycan array binding signal (z-score) [72]: 0.76
- glycan array binding signal (z-score) [73]: 0.336
- glycan array binding signal (z-score) [74]: 1.05
- glycan array binding signal (z-score) [75]: -0.563
